According to patent US10646596B2, “Near-infrared dye-bound transferrin, and contrast agent for photoacoustic imaging, including the near-infrared dye-bound transferrin” (CANON KABUSHIKI KAISHA, priority 2015, dated 2020):

Test: Measurement of photoacoustic signal of aqueous sample solution
Assay type: physicochemical
Details: solution in water, laser wavelength 790 nm, relative to ICG = 1

Row | Substance | PA signal intensity (ICG = 1)
1 | iTF (2.0): Human transferrin covalently bound to ICG-Sulfo-OSu near-infrared dye; number of dye(s) labeled 2.0 | 1.8
2 | iTF (4.8): Human transferrin covalently bound to ICG-Sulfo-OSu near-infrared dye; number of dye(s) labeled 4.8 | 5.0
3 | iTF (7.0): Human transferrin covalently bound to ICG-Sulfo-OSu near-infrared dye; number of dye(s) labeled 7.0 | 8.8
4 | iTF (8.3): Human transferrin covalently bound to ICG-Sulfo-OSu near-infrared dye; number of dye(s) labeled 8.3 | 10.4
5 | iTF (8.4): Human transferrin covalently bound to ICG-Sulfo-OSu near-infrared dye; number of dye(s) labeled 8.4 | 10.8
